Data as given in PubChem BioAssay AID248 (DTP/NCI, 2004).
The list shows only some results of the screen, not a fair sample: it is rich in T/C values a quarter to a half above the control, in often repeated tests (any T/C) and in doses without a T/C. Other doses and runs of a compound stand elsewhere. T/C gives the treated animals as a percentage of the vehicle group. Some entries give survivors of the animals treated and no T/C: the source files T/C as zero there, which appears to mark a toxic dose or a test without result, not a measured value. Some doses without a T/C left all or most animals alive at the check, yet need not have been tolerated: survival well below the control is almost never listed, so the zero probably covers shortened survival too. Survivors were counted at the toxicity check, usually on the fifth day, unless a day is given; later deaths do not show. Schedules are NCI's codes, taken here to give the interval after Q, in days (D) or hours (H), and the number of doses after X. Some schedule codes hold Z or #, which are not explained here. For survival time, the PubChem record calls one and a half times the control and up active, and a quarter to a half above the control has no call in these data; cut-offs in other NCI protocols can differ.

System: L1210 leukemia ip in BDF1 mice, survival T/C
Test: NCI In Vivo Anticancer Drug Screen. Data for tumor model L1210 Leukemia (intraperitoneal) in B6D2F1 (BDF1) mice
Settings: T/C endpoint: mean survival time, higher T/C = longer survival
[1] = dose: 200.0 mg/kg/injection, schedule: Q01DX001 (ip), vehicle: saline
[2] = dose: 400.0 mg/kg/injection, schedule: Q01DX001 (ip), vehicle: saline
[3] = dose: 200.0 mg/kg/injection, schedule: Q01DX009 (ip), vehicle: saline
[4] = dose: 400.0 mg/kg/injection, schedule: Q04DX003 (ip), vehicle: Klucel (hydroxypropylcellulose) (HPC)

## N=C(N)Sc1n[nH]c(=O)[nH]c1=O
dose: 300.0 mg/kg/injection, schedule: Q01DX001 (ip), vehicle: alcohol
  survivor count: 0 of 6

## CN=C(c1ccc(NC(=O)c2ccc(C(=O)Nc3ccc(C(=NC)N4CCCC4)cc3)cc2)cc1)N1CCCC1
dose: 2.0 mg/kg/injection, schedule: Q01DX Z (ip), vehicle: water
  survivor count: 3 of 6
dose: 4.0 mg/kg/injection, schedule: Q01DX Z (ip), vehicle: water
  survivor count: 0 of 6

## Cc1ccc(S(=O)(=O)OC2C(O)C(CO)OC2n2c(Br)c(C(N)=O)c3c(N)ncnc32)cc1 (configuration not stated)
dose: 400.0 mg/kg/injection, schedule: Q01DX009 (ip), vehicle: water
  survivor count: 5 of 5

## CCC(C)C1NC(=O)C(NC(=O)c2c3nc4c(C(=O)NC5C(=O)NC(C(C)CC)C(=O)N6CCCC6C(=O)N(C)CC(=O)N(C)C(C(C)C)C(=O)OC5C)cc([N+](=O)[O-])c(C)c4oc-3c(C)c(=O)c2N)C(C)OC(=O)C(C(C)C)N(C)C(=O)CN(C)C(=O)C2CCCN2C1=O (configuration not stated)
dose: 150.0 micrograms/kg/injection, schedule: Q01DX009 (ip), vehicle: saline + alcohol
  T/C: 129 % of control
dose: 300.0 micrograms/kg/injection, schedule: Q01DX009 (ip), vehicle: saline + alcohol
  T/C: 127 % of control
dose: 400.0 micrograms/kg/injection, schedule: Q01DX009 (ip), vehicle: saline + alcohol
  T/C: 134 % of control
dose: 800.0 micrograms/kg/injection, schedule: Q04DX003 (ip), vehicle: saline + alcohol
  T/C: 130 % of control
dose: 1200.0 micrograms/kg/injection, schedule: Q04DX003 (ip), vehicle: saline + alcohol
  T/C: 137 % of control
dose: 1600.0 micrograms/kg/injection, schedule: Q04DX003 (ip), vehicle: saline + alcohol
  T/C: 134 % of control

## O=C1CCCCc2cc(O)c([N+](=O)[O-])cc21
dose: 200.0 mg/kg/injection, schedule: Q01DX009 (ip), vehicle: saline with Tween-80
  survivor count: 3 of 3

## O=C(O)/C=C\C(=O)Nc1ccc2c(c1)Cc1cc(Cl)ccc1-2
dose: 400.0 mg/kg/injection, schedule: Q04DX003 (ip), vehicle: saline with Tween-80
  survivor count: 3 of 6

## O=C(O)c1cccc(N2C(=O)CSC2=S)c1
dose: 25.0 mg/kg/injection, schedule: Q04DX002 (ip), vehicle: Klucel (hydroxypropylcellulose) (HPC)
  survivor count: 3 of 3

## CC(=O)Nc1ccc(/C=N/Nc2c3ccccc3nc3ccccc23)cc1
[1]
  survivor count: 2 of 4
[2]
  survivor count: 0 of 4

## CCC(CN(C)C)C(=O)c1ccccc1 (configuration not stated)
dose: 50.0 mg/kg/injection, schedule: Q01DX009 (ip), vehicle: saline
  survivor count: 0 of 6
dose: 100.0 mg/kg/injection, schedule: Q01DX009 (ip), vehicle: saline
  survivor count: 0 of 6
[3]
  survivor count: 0 of 6

## C/C=C/C(C#N)Nc1ccccc1C(N)=O (configuration not stated)
dose: 150.0 mg/kg/injection, schedule: Q01DX009 (ip), vehicle: Klucel (hydroxypropylcellulose) (HPC)
  survivor count: 0 of 3
dose: 200.0 mg/kg/injection, schedule: Q04DX003 (ip), vehicle: Klucel (hydroxypropylcellulose) (HPC)
  survivor count: 1 of 6
dose: 225.0 mg/kg/injection, schedule: Q01DX009 (ip), vehicle: Klucel (hydroxypropylcellulose) (HPC)
  survivor count: 0 of 3
dose: 335.0 mg/kg/injection, schedule: Q01DX009 (ip), vehicle: Klucel (hydroxypropylcellulose) (HPC)
  survivor count: 0 of 3
[4]
  survivor count: 0 of 6

## Cc1ccc2nc(Cl)cc(=O)n2c1
[2]
  survivor count: 2 of 4

## COc1cccc(CC2=NCCc3cc(OC)c(OC)cc32)c1
[3]
  survivor count: 0 of 6
dose: 200.0 mg/kg/injection, schedule: Q04DX003 (ip), vehicle: saline
  survivor count: 0 of 6
dose: 400.0 mg/kg/injection, schedule: Q04DX003 (ip), vehicle: saline
  survivor count: 0 of 6

## CN(C)C(=S)[S][Sb]([S]C(=S)N(C)C)[c]1ccccc1
dose: 400.0 mg/kg/injection, schedule: Q01DX001 (ip), vehicle: steroid suspending solution
  survivor count: 2 of 4

## CN(C)C(C#N)C(=O)c1ccc(Cl)cc1 (configuration not stated)
[2]
  survivor count: 0 of 6

## N#Cc1ccc(Br)cc1[N+](=O)[O-]
dose: 12.5 mg/kg/injection, schedule: Q01DX009 (ip), vehicle: Klucel (hydroxypropylcellulose) (HPC)
  survivor count: 6 of 6
dose: 25.0 mg/kg/injection, schedule: Q01DX009 (ip), vehicle: Klucel (hydroxypropylcellulose) (HPC)
  survivor count: 6 of 6
dose: 50.0 mg/kg/injection, schedule: Q01DX009 (ip), vehicle: Klucel (hydroxypropylcellulose) (HPC)
  survivor count: 2 of 6
dose: 100.0 mg/kg/injection, schedule: Q01DX009 (ip), vehicle: Klucel (hydroxypropylcellulose) (HPC)
  survivor count: 1 of 6
dose: 200.0 mg/kg/injection, schedule: Q01DX009 (ip), vehicle: Klucel (hydroxypropylcellulose) (HPC)
  survivor count: 0 of 6
[4]
  survivor count: 0 of 6

## COc1ccc(OC)c(-c2csc(=O)s2)c1
dose: 200.0 mg/kg/injection, schedule: Q04DX002 (ip), vehicle: Klucel (hydroxypropylcellulose) (HPC)
  T/C: 141 % of control

## NCCCN1CCCN=C1C1=NCCCN1CCCN
dose: 400.0 mg/kg/injection, schedule: Q04DX002 (ip), vehicle: saline
  survivor count: 3 of 3

## CSc1nc(SCc2ccc(Cl)cc2)ncc1C
dose: 25.0 mg/kg/injection, schedule: Q01DX Z (ip), vehicle: methylcellulose (MC)
  survivor count: 6 of 6
dose: 100.0 mg/kg/injection, schedule: Q01DX Z (ip), vehicle: methylcellulose (MC)
  survivor count: 6 of 6

## Cc1ccc(N(O)C(=O)Nc2ccccc2)cc1
dose: 400.0 mg/kg/injection, schedule: Q01DX015 (ip), vehicle: methylcellulose (MC)
  survivor count: 5 of 6

## CC(C)CC(NC(=O)OC(C)(C)C)C(=O)NC(Cc1c[nH]c2ccccc12)C(=O)NN (configuration not stated)
dose: 200.0 mg/kg/injection, schedule: Q01DX001 (ip), vehicle: carboxymethylcellulose (CMC)
  survivor count: 6 of 6

## CC(=O)Nc1ccc(NC(=O)Nc2ccccc2C(F)(F)F)cc1
dose: 400.0 mg/kg/injection, schedule: Q04DX002 (ip), vehicle: carboxymethylcellulose (CMC)
  survivor count: 3 of 3

## NC1(C(=O)O)CC(O)(c2ccccc2)C(O)(c2ccccc2)C1 (configuration not stated)
[2]
  survivor count: 4 of 4

## O=C(NNC(=O)c1ccc(Br)cc1)c1ccc(Cl)cc1
dose: 400.0 mg/kg/injection, schedule: Q01DX009 (ip), vehicle: Klucel (hydroxypropylcellulose) (HPC)
  survivor count: 6 of 6

## Cc1cc(N(C)C)c(C(C)C)cc1O (tested in a mixture with another compound)
dose: 100.0 mg/kg/injection, schedule: Q01DX001 (ip), vehicle: saline
  survivor count: 0 of 6
[1]
  survivor count: 0 of 6
[2]
  survivor count: 0 of 6
